Reference: patent publication US20240374545A1, “DIAGNOSIS OF IMMUNITY REDUCTION THROUGH INTESTINAL MICROFLORA ANALYSIS OF STOMACH CANCER PATIENTS, AND THERAGNOSTIC COMPOSITION USING INTESTINAL MICROFLORA” (THE CATHOLIC UNIVERSITY OF KOREA INDUSTRY-ACADEMIC …, priority 2022, published 2024)
For at least one compound, name, drawing or mass did not settle the structure.

How the values were obtained:
[1] = system: AGS cell line, a stomach cancer cell line; experiment: Stomach cancer patient simulation avatar model (AGS+PBMC in NSG mice), tumor volume; type: in vivo; conditions: 200 mg/kg orally daily from three weeks after AGS injection (FIG. 22)
[2] = system: IL-10; experiment: IL-10 expression in macrophages (CD68+) and culture medium of stomach cancer patient peripheral mononuclear cells; type: cell-based, human
[3] = system: AGS cells, a stomach cancer cell line; experiment: Apoptosis of AGS cells by flow cytometry (Faecalibacterium prausnitzii, butyrate); type: cell-based; conditions: AGS cell line, 0.5, 1, and 1.5 mM, compared to the Vehicle group (FIG. 20)
[4] = system: IL-10; experiment: IL-10 expression in tumor tissue of avatar model, immunohistochemical staining; type: in vivo, mice; conditions: butyrate-treated group vs Vehicle group, immunohistochemical staining (FIG. 23)
[5] = system: STAT3; experiment: STAT3 expression in tumor tissue of avatar model, immunohistochemical staining; type: in vivo, mice; conditions: butyrate-treated group vs Vehicle group, immunohistochemical staining (FIG. 23)
[6] = system: PD-L1; experiment: PD-L1 expression in macrophages (CD68+) of stomach cancer patient peripheral mononuclear cells, flow cytometry; type: cell-based, human
[7] = system: stomach cancer cell line; experiment: Cell viability of stomach cancer cell line by absorbance at 450 nm; type: cell-based; conditions: wavelength of 450 nm, compared to the Vehicle group (FIG. 21)
[8] = system: PD-L1; experiment: PD-L1 expression in tumor tissue of avatar model, immunohistochemical staining; type: in vivo, mice; conditions: butyrate-treated group vs Vehicle group, immunohistochemical staining (FIG. 23)
[9] = system: NF-κb; experiment: NF-κb expression in tumor tissue of avatar model, immunohistochemical staining; type: in vivo, mice; conditions: butyrate-treated group vs Vehicle group, immunohistochemical staining (FIG. 23)
[10] = 0.5 and 1 mM, 3 days, compared to the Vehicle group (FIG. 16)
[11] = Nil / Vehicle / treated comparison (FIG. 18)

Structure (SMILES): CCCC(=O)O [butyrate]
- tumor volume [1]: significantly decreased
- expression of IL-10 in CD68 positive cells [2, 10]: decreased in a concentration-dependent manner
- expression of IL-10 in macrophages [2, 11]: significantly decreased
- IL-10 in the culture medium ([2]; Nil / Vehicle / treated comparison (FIG. 18B)): significantly decreased
- apoptosis [3]: induced in a concentration-dependent manner
- expression of immunity reduction marker IL-10 in tumor tissue [4]: significantly decreased
- expression of tumor marker STAT3 in tumor tissue [5]: significantly decreased
- expression of PD-L1 in CD68 positive cells [6, 10]: decreased in a concentration-dependent manner
- expression of PD-L1 in macrophages [6, 11]: significantly decreased
- absorbance (cell viability) [7]: decreased in a concentration-dependent manner
- expression of immunity reduction marker PD-L1 in tumor tissue [8]: significantly decreased
- expression of tumor marker NF-κb in tumor tissue [9]: significantly decreased
